Results as given in US5646149A, “Compounds having both potent calcium antagonist and antioxidant activity and use thereof as cytoprotective agents” (Alcon Laboratories, Inc., priority 1995, dated 1997).
Like-named read-outs stand apart in the source and are kept apart here.

Assay: Phospholipid oxidation assay in liposomes
Assay type: biochemical
Method: The DPPH assay is a chemical assay used to determine free radical scavenging activity. The retinal pieces, liver microsomes and phospholipid oxidation models measure antioxidant activity. The calcium binding assay is a measure of the affinity of the compound for a calcium antagonist binding site. The test procedures are described in greater detail below.
Antioxidant activity was measured using a phospholipid oxidation assay. Liposomes formed from dilineoleolyl phosphocholine were exposed to Fe^+3 /EDTA (167 μM) and ascorbate (167 μM). Oxidation was measured by conjugate diene formation monitored using UV spectroscopy (Biochim. Biophys. Acta., volume 1081, pages 181-187, (1991)). The IC50 was calculated using the following non-linear regression algorithm: Y=A/[1+(B/X)^c ], wherein A=maximum, B=IC50 and c=cooperativity or relative broadness of the curves. The minimum was assumed to be zero.

- IC50 (Fe^+3/EDTA (167 μM) and ascorbate (167 μM), conjugate diene formation, read-out: Phospholipid Oxidation IC50): 149 µM
- IC50 (Summary of Activity table, read-out: Phosopholipid Oxidation IC50): 149 µM
SMILES: Fc1ccc(C(c2ccc(F)cc2)N2CCN(C/C=C/c3ccccc3)CC2)cc1 [Flunarizine]
